Measurements as given in publication PMC7136618, “Defective nucleotide-dependent assembly and membrane fusion in Mfn2 CMT2A variants improved by Bax” (Life Science Alliance, 2020).
Results are given in words; binding and its absence hold for the method and conditions named. In cells and extracts the contact can be indirect. Some entries that bind do so weakly or less than the wild type. Tags and fused reporters may be left off the sequences shown.

Experiments:
[1] = target: T1, Mfn2^A383V with a C-terminal 3×FLAG tag (UniProt Q80U63); test: co-IP; two populations of isolated mitochondria (Mfn1 + Mfn2-FLAG; Mfn1-eGFP + Mfn2), 50 μg each, mixed, incubated at 37°C for 30 min with BeF3 with or without 2 mM GDP in fusion buffer; lysed in 1.5% DDM; anti-FLAG (DYKDDDDK) magnetic beads; blots with α-Mfn1 and α-Mfn2; endogenous Mfn1 is in cis, Mfn1-eGFP and endogenous Mfn2 are in trans to Mfn2-FLAG
T1 sequence: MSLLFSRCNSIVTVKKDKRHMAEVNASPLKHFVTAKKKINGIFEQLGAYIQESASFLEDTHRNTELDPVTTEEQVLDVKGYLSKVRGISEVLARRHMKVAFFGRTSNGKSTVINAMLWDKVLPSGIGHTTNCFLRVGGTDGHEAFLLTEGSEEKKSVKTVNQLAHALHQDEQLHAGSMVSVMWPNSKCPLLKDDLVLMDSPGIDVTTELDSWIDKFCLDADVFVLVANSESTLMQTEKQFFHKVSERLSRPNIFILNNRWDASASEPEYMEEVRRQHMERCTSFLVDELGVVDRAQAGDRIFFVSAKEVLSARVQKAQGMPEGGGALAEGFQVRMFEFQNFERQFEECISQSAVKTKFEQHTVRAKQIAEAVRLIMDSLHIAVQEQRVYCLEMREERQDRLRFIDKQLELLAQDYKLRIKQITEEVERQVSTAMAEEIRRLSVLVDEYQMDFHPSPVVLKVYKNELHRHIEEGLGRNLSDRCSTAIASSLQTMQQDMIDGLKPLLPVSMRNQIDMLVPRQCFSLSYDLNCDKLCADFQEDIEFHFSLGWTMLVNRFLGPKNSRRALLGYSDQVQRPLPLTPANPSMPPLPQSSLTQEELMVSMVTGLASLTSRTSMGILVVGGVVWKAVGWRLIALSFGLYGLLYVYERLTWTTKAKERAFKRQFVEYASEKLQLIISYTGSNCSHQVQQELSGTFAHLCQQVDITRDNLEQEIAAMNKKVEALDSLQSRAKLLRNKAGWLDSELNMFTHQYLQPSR

[2] = target: T2, Mfn2^S378P with a C-terminal 3×FLAG tag (UniProt Q80U63); test: as above
T2 sequence: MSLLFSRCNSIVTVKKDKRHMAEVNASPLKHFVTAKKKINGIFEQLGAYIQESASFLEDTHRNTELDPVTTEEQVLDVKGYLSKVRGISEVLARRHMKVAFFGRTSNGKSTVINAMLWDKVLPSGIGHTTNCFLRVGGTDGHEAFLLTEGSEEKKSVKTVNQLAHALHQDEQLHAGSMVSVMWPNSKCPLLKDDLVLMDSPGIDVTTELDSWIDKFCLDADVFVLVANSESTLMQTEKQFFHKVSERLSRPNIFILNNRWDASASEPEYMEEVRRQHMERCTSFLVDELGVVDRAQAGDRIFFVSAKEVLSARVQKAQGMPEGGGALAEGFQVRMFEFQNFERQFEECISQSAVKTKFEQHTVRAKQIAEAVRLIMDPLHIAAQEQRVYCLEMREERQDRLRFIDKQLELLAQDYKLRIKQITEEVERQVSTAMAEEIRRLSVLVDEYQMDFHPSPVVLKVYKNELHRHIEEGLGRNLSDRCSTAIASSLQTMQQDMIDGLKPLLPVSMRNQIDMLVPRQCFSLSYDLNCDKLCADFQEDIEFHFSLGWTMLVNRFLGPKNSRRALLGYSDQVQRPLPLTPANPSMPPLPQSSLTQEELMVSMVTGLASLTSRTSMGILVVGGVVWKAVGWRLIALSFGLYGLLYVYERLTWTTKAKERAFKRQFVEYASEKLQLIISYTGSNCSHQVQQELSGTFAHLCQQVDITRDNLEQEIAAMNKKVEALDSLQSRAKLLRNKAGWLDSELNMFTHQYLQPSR

B1: endogenous Mfn1 (protein, UniProt Q811U4 1-741)
chain: MAETVSPLKHFVLAKKAITAIFGQLLEFVTEGSHFVEATYRNPELDRIASEDDLVEIQGYRNKLAVIGEVLSRRHMKVAFFGRTSSGKSSVINAMLWDKVLPSGIGHTTNCFLSVEGTDGDKAYLMTEGSDEKKSVKTVNQLAHALHMDKDLKAGCLVHVFWPKAKCALLRDDLVLVDSPGTDVTTELDIWIDKFCLDADVFVLVANSESTLMNTEKHFFHKVNERLSKPNIFILNNRWDASASEPEYMEDVRRQHMERCLHFLVEELKVVSPSEARNRIFFVSAKEVLNSRKHKAQGMPEGGGALAEGFQARLQEFQNFEQTFEECISQSAVKTKFEQHTIRAKQILDTVKNILDSVNVAAAEKRVYSMEEREDQIDRLDFIRNQMNLLTLDVKKKIKEVTEEVANKVSCAMTDEICRLSVLVDEFCSEFHPTPSVLKVYKSELNKHIEDGMGRNLADRCTNEVNASILQSQQEIIENLKPLLPAGIQNKLHTLIPCKKFDLSYDLNCHKLCSDFQEDIVFRFSLGWSSLVHRFLGSTNAQRVLLGLSEPIFQVPRSLASTPTAPSNPAAPDNAAQEELMITLITGLASLTSRTSMGIIVVGGVIWKTVGWKLISVTLSMYGALYLYERLTWTTRAKERAFKQQFVNYATEKLQMIVSFTSANCSHQVQQEMATTFARLCQQVDVTQKHLEEEIARLSKEIDQLEKIQNNSKLLRNKAVQLESELENFSKQFLHPSSGES
Question: For B1, which binding [1] is on record?
Answer: Its binding is “binds”.

Question: And the binding [2]?
Answer: Its binding is “binds”.

B2: Mfn1^WT-eGFP (protein, UniProt Q811U4 1-741)
chain: MAETVSPLKHFVLAKKAITAIFGQLLEFVTEGSHFVEATYRNPELDRIASEDDLVEIQGYRNKLAVIGEVLSRRHMKVAFFGRTSSGKSSVINAMLWDKVLPSGIGHTTNCFLSVEGTDGDKAYLMTEGSDEKKSVKTVNQLAHALHMDKDLKAGCLVHVFWPKAKCALLRDDLVLVDSPGTDVTTELDIWIDKFCLDADVFVLVANSESTLMNTEKHFFHKVNERLSKPNIFILNNRWDASASEPEYMEDVRRQHMERCLHFLVEELKVVSPSEARNRIFFVSAKEVLNSRKHKAQGMPEGGGALAEGFQARLQEFQNFEQTFEECISQSAVKTKFEQHTIRAKQILDTVKNILDSVNVAAAEKRVYSMEEREDQIDRLDFIRNQMNLLTLDVKKKIKEVTEEVANKVSCAMTDEICRLSVLVDEFCSEFHPTPSVLKVYKSELNKHIEDGMGRNLADRCTNEVNASILQSQQEIIENLKPLLPAGIQNKLHTLIPCKKFDLSYDLNCHKLCSDFQEDIVFRFSLGWSSLVHRFLGSTNAQRVLLGLSEPIFQVPRSLASTPTAPSNPAAPDNAAQEELMITLITGLASLTSRTSMGIIVVGGVIWKTVGWKLISVTLSMYGALYLYERLTWTTRAKERAFKQQFVNYATEKLQMIVSFTSANCSHQVQQEMATTFARLCQQVDVTQKHLEEEIARLSKEIDQLEKIQNNSKLLRNKAVQLESELENFSKQFLHPSSGES
Question: Which binding [1] does the source give for B2 here?
Answer: Its binding is “binds”.

Question: What about the binding [2] of the same binder?
Answer: Its binding is “binds”.
